Patent publication US20020165189
For some assays here: Negatives hold for the conditions tested. For some assays here: Where a protein sequence is shown, tags need not be part of it. For some assays here: Construct, isoform or probe ends are uncertain for at least one entry. For some assays here: The comparison behind a weaker result is the experiment's own reference, which may not be listed here.

How the values were obtained:
Assay in all cases: enzyme reaction in vitro
[1] = system: dsRNase activity (T24 cytosolic or nuclear extract) (Homo sapiens); conditions: protein in an extract
[2] = molecular target: T1, RNase H (Escherichia coli) (UniProt P0A7Y4); conditions: purified recombinant protein
T1 sequence (looked up, limits assumed): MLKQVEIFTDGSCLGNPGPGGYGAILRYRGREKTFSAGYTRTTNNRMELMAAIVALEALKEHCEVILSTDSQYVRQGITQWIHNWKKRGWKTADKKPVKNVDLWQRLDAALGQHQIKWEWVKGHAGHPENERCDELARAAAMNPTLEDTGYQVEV

[3] = system: nuclear dsRNase (rat liver) (Rattus); conditions: sense: 8-nt PO ribo gap with 2'-OMe PS wings; antisense: 2'-OMe PS wings, 8-nt ribo gap (PO or PS); requires Mg++; less active than cytosolic extract; 37 C; protein in an extract; label: 32P 5' end of …
[4] = system: cytosolic dsRNase (rat liver) (Rattus); conditions: sense: 8-nt PO ribo gap with 2'-OMe PS wings; antisense: 2'-OMe PS wings, 8-nt ribo gap (PO or PS); requires Mg++; several sites in ribo gap; 37 C; 20 mM Tris pH 7.5, 20 mM KCl, 10 mM MgCl2; purified native protein; label: 32P 5' end of sense

For “AAUGCAUGUCACAGGCGGGA / UCCCGCCUGUGACAUGCAUU [c-Raf RNA gapmer (SEQ 8):RNA duplex]”, the “activity on this sequence” value ([1]; antisense gapmer with 2'-OMe wings, SEQ 8 is printed 3'-5' in Table 1, T24 homogenate, much slower than comparable DNA gapmer, label: 32P on target) was “less active”.
For “CCACACCGACGGCGCCC / GGGCGCCGUCGGUGUGG [Ha-ras full oligodeoxynucleotide:RNA duplex]”, the “activity on this sequence” value ([2]; antisense strand all deoxy, label: 32P on RNA, DNA:RNA hybrid, variant of Ha-ras 9 RNA gapmer:RNA duplex) was “active”.
“UCAAUGGAGCACAUACAGGG / CCCUGUAUGUGCUCCAUUGA [c-Raf RNA gapmer (SEQ 6):RNA duplex]” was tested, and the “activity on this sequence” value ([1]; antisense gapmer with 2'-OMe wings, SEQ 6 is printed 3'-5' in Table 1, T24 homogenate, no cleavage supported, label: 32P on target) was “not active”.
In the case of “CCGAAUGUGACCGCCUCCCG / CGGGAGGCGGUCACAUUCGG [c-Raf RNA gapmer (SEQ 4):RNA duplex]”, the “activity on this sequence” value ([1]; antisense gapmer with 2'-OMe wings, SEQ 4 is complementary when read 3'-5', T24 homogenate, no cleavage supported, label: 32P on target) is reported as “not active”.
In the case of “CCACACCGACGGCGCCC / GGGCGCCGUCGGUGUGG [Ha-ras 9 DNA gapmer:RNA duplex]”, the “activity on this sequence” value ([2]; antisense: wings flanking 9-nt deoxy gap, cleavage localized to DNA:RNA portion, label: 32P on RNA, variant of Ha-ras 9 RNA gapmer:RNA duplex) is reported as “active”.
For “CCACACCGACGGCGCCC / GGGCGCCGUCGGUGUGG [Ha-ras 9 RNA gapmer with PO gap:RNA duplex]”, the “activity on this sequence” value ([1]; antisense: 2'-OMe PS wings, 9-nt 2'-OH gap with phosphodiester linkages, antisense strand cleaved in phosphodiester gap, label: 32P on antisense strand, variant of Ha-ras 9 RNA gapmer:RNA duplex) was “active”.
In the case of “GGGCGCCGUCGGUGUGG / CCACACCGACGGCGCCC [Ha-ras dsRNase artificial substrate]”, the “activity on this sequence” value [3] is reported as “active”, the “activity on this sequence” value [4] is reported as “active” and the “activity on this sequence” value ([1]; sense: 8-nt PO ribo gap with 2'-OMe PS wings, antisense: 2'-OMe PS wings, 8-nt ribo gap (PO or PS), T24 extract cleaved the substrate, label: 32P 5' end of sense) is reported as “active”.
With “CCACACCGACGGCGCCC / GGGCGCCGUCGGUGUGG [Ha-ras 9 RNA gapmer:RNA duplex]” the “activity on this sequence” value ([2]; antisense: 2'-OMe wings, 9-nt 2'-OH gap, PS throughout, sense unmodified RNA, not a substrate, label: 32P 5' end of sense RNA) was “not active” and the “activity on this sequence” value ([1]; antisense: 2'-OMe wings, 9-nt 2'-OH gap, PS throughout, sense unmodified RNA, cleaved within RNA:RNA gap, preferred near 3' end of target, 37 C, nuclear extract comparable, label: 32P 5' end of sense RNA) was “active”.
